Experimental data reported in the supplement of paper PMC3334620.
Over roughly 33,000 sequences, “E-score (-0.5 to 0.5)” has its median near -8e-05; the highest 2% begin near 0.23. The list shows a part of the results.

What follows are sequences tested against T1, Nrg2 (UniProt P38082) (assay: PBM E-score (8-mer binding enrichment) (E-score (-0.5 to 0.5)); higher = stronger / more preferred TF binding). Settings: protein concentration: 100 nM; construct: GST-full length.
T1 sequence: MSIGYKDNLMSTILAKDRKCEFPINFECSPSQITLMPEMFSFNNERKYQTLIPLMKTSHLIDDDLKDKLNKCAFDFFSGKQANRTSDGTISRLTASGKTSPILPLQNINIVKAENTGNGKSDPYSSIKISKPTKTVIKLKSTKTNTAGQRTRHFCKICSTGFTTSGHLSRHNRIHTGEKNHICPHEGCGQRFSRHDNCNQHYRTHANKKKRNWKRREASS
Method in brief: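 Full-length yeast transcription factors or their DNA-binding domains, GST-tagged and expressed with PURExpress, were applied at about 100-200 nM to universal all-10-mer Agilent arrays. These arrays had been made double-stranded by primer extension on fresh or once-stripped slides. Detection used fluorescent anti-GST, normalisation used masliner, and E-scores for ungapped eight-base words pooled with reverse complements came from the Universal PBM Analysis Suite.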
GGCACTAA was tested, and the “PBM E-score” value was 0.134.
For AGGATGAT, the “PBM E-score” value was 0.0595.
ACCGGATG was tested, and the “PBM E-score” value was -0.0549.
GGCATCCC was tested, and the “PBM E-score” value was -0.253.
In the case of GGCTCAGA, the “PBM E-score” value is reported as 0.0626.
CGACGCGA was tested, and the “PBM E-score” value was -0.0343.
ACTAGCAA was tested, and the “PBM E-score” value was 0.0254.
CGTGGTGA was tested, and the “PBM E-score” value was -0.282.
CCACACAA was tested, and the “PBM E-score” value was 0.0363.
With CATCCAGA the “PBM E-score” value was -0.127.
With ACCCGATA the “PBM E-score” value was -0.0189.
AGCCCACT was tested, and the “PBM E-score” value was -0.0594.
In the case of CGGCGCGA, the “PBM E-score” value is reported as 0.121.
For CCACGCCA, the “PBM E-score” value was -0.0242.
GCTGGTAC was tested, and the “PBM E-score” value was -0.177.
For ACGCGGAC, the “PBM E-score” value was 0.0191.
In the case of CTTGTAGC, the “PBM E-score” value is reported as 0.132.
In the case of AGCCCCCT, the “PBM E-score” value is reported as -0.3.
For GTCGTAGA, the “PBM E-score” value was 0.0343.
With AATTTATC the “PBM E-score” value was 0.312.
For AGTAAAGA, the “PBM E-score” value was 0.13.
With ACCTGGAC the “PBM E-score” value was -0.137.
In the case of AATCGGAG, the “PBM E-score” value is reported as 0.105.
With CTAGATAC the “PBM E-score” value was 0.147.
AAAACTAT was tested, and the “PBM E-score” value was 0.0045.
CAAGACAA was tested, and the “PBM E-score” value was 0.127.
With GGGTGCCA the “PBM E-score” value was 0.0209.
With TGCTCCCA the “PBM E-score” value was -0.0553.
With AGCCACCG the “PBM E-score” value was -0.196.
With CTAGGTCC the “PBM E-score” value was 0.0627.
With GAACACCC the “PBM E-score” value was -0.128.
In the case of GCGACAGA, the “PBM E-score” value is reported as 0.238.
In the case of CTACAAAA, the “PBM E-score” value is reported as 0.0553.
GCAGCTGA was tested, and the “PBM E-score” value was 0.0488.
With AATCTTTG the “PBM E-score” value was 0.0327.
In the case of AGGTAAAA, the “PBM E-score” value is reported as -0.00652.
With TTGTACAA the “PBM E-score” value was 0.0871.
GAAGTCGA was tested, and the “PBM E-score” value was 0.139.
AACTGTTG was tested, and the “PBM E-score” value was -0.00214.
In the case of GATTCCCC, the “PBM E-score” value is reported as -0.148.
With ATGGTTTG the “PBM E-score” value was 0.0204.
With AAGCCGCA the “PBM E-score” value was -0.0098.
With ATAGCAGA the “PBM E-score” value was 0.0143.
In the case of GCTCTCAA, the “PBM E-score” value is reported as 0.047.
In the case of AGCCAAGC, the “PBM E-score” value is reported as -0.156.
For CTGGTACA, the “PBM E-score” value was -0.0315.
In the case of GGGGACTA, the “PBM E-score” value is reported as -0.0994.
GGGAACCA was tested, and the “PBM E-score” value was -0.231.
For GAAAGGCC, the “PBM E-score” value was -0.0594.
CAAAACAG was tested, and the “PBM E-score” value was 0.0581.
CCTTACTC was tested, and the “PBM E-score” value was 0.138.
AGGCGGAT was tested, and the “PBM E-score” value was 0.0209.
For GCGGTGGA, the “PBM E-score” value was 0.136.
In the case of CACTTCTC, the “PBM E-score” value is reported as -0.0526.
For ATTGCGAC, the “PBM E-score” value was 0.198.
In the case of CGGCTGAG, the “PBM E-score” value is reported as -0.0583.
For CTCCCGAG, the “PBM E-score” value was -0.218.
For AGCTTATC, the “PBM E-score” value was -0.0335.
With CGAGTGCA the “PBM E-score” value was 0.0846.
In the case of CTCGTAAG, the “PBM E-score” value is reported as 0.0943.
GCATGTAC was tested, and the “PBM E-score” value was 0.0645.
GGTGAGCA was tested, and the “PBM E-score” value was -0.223.
CATAGCAA was tested, and the “PBM E-score” value was 0.0247.
CGGTACCA was tested, and the “PBM E-score” value was -0.18.
For CTTTACGA, the “PBM E-score” value was -0.192.
In the case of ATATTAAA, the “PBM E-score” value is reported as 0.29.
For CCTGAAGC, the “PBM E-score” value was -0.221.
In the case of TGTTAAAA, the “PBM E-score” value is reported as -0.0704.
With AAAAAGGA the “PBM E-score” value was 0.0662.
In the case of TAAGGTGA, the “PBM E-score” value is reported as -0.0318.
With AAGTCCTG the “PBM E-score” value was -0.0665.
ACGCAGGC was tested, and the “PBM E-score” value was -0.201.
With CGAAGTAG the “PBM E-score” value was 0.0892.
With CCTAGGCA the “PBM E-score” value was -0.0703.
In the case of CAGTAAAC, the “PBM E-score” value is reported as -0.0747.
In the case of ATGTACTG, the “PBM E-score” value is reported as 0.0724.
In the case of ACGTTAGC, the “PBM E-score” value is reported as 0.0712.
In the case of CTCAGGTA, the “PBM E-score” value is reported as -0.0666.
For ACGGCTCC, the “PBM E-score” value was -0.0024.
For GAGGCCTC, the “PBM E-score” value was -0.327.
In the case of ACAACGAC, the “PBM E-score” value is reported as -0.0262.
For ATTAATAC, the “PBM E-score” value was 0.223.
ACGATCTC was tested, and the “PBM E-score” value was -0.0267.
For ATACGGAC, the “PBM E-score” value was -0.0987.
With AAGAAAAC the “PBM E-score” value was 0.0677.
ATATCGAA was tested, and the “PBM E-score” value was 0.211.
CTATGTCC was tested, and the “PBM E-score” value was 0.0087.
With CCTGGTTC the “PBM E-score” value was -0.00734.
AAGGTTCT was tested, and the “PBM E-score” value was 0.0402.
With CAGACGTC the “PBM E-score” value was -0.243.
With CAGAAATC the “PBM E-score” value was 0.0356.
With CGCGAATA the “PBM E-score” value was 0.183.
ACCCACAG was tested, and the “PBM E-score” value was -0.111.
For CGATTTTA, the “PBM E-score” value was 0.194.
For CCGTGAAC, the “PBM E-score” value was -0.021.
In the case of ACGATTTC, the “PBM E-score” value is reported as 0.0712.
AGATCGAT was tested, and the “PBM E-score” value was 0.139.
In the case of AGAAAATC, the “PBM E-score” value is reported as 0.0379.
CAGCGGGA was tested, and the “PBM E-score” value was 0.0638.
With AGTCTCTG the “PBM E-score” value was -0.193.
For ATCAAGTC, the “PBM E-score” value was 0.0581.
For ACACACCG, the “PBM E-score” value was -0.115.
For AGGAAAAA, the “PBM E-score” value was -0.101.
With TATTAGAA the “PBM E-score” value was 0.249.
For ACCCTAAA, the “PBM E-score” value was 0.161.
GCCGCAAA was tested, and the “PBM E-score” value was 0.157.
GTATACTA was tested, and the “PBM E-score” value was -0.0179.
In the case of GCAGGTAC, the “PBM E-score” value is reported as -0.17.
For ACCATGGG, the “PBM E-score” value was -0.0447.
With CCCATGGG the “PBM E-score” value was 0.323.
